{"source": "PubChem BioAssay AID1224827 (NIAID, 2016)", "test": "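Confirm genes whose knock-down changes LPS-driven TNF promoter activity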 (follow-up of hits)", "cells": "RAW264.7 G9 mouse macrophage reporter clone", "knock-down reagent": "single siRNA against mouse genes, 100 nM siRNA", "duration": "siRNA for 2 days, then LPS about 16 h", "treatment": "bacterial lipopolysaccharide (LPS), 10 ng/ml, cells fixed after overnight (about 16 h) stimulation", "detection": "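TNF promoter reporter red fluorescence in nuclei, background subtracted, normalised per plate and to non-targeting control siRNA, as z-scores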", "scale": "TNF reporter z-score, mean: higher = stronger Tnf promoter reporter signal", "call rule": "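An siRNA is called active when its mean z-score over replicates is at least +2 or at most -2; control wells get no call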", "note": "Shown is one part, drawn at random, of about 3,800 reagents tested. Over the whole deposit, about 2,200 (57%) are marked active. 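Active means a strong reporter change in either direction; calls are per siRNA, not per gene; qiagen siRNAs gave weaker effects.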 A number with no mark means an inactive call. Reagents against one gene are numbered here. Not all columns of the deposit are shown."}
{"gene": "Htra3 (HtrA serine peptidase 3)", "siRNA no.": 1, "TNF reporter z-score, mean": -1.82}
{"gene": "Htra3 (HtrA serine peptidase 3)", "siRNA no.": 2, "TNF reporter z-score, mean": "-3.57 (active)"}
{"gene": "Htra3 (HtrA serine peptidase 3)", "siRNA no.": 3, "TNF reporter z-score, mean": "-4.84 (active)"}
{"gene": "Htra3 (HtrA serine peptidase 3)", "siRNA no.": 4, "TNF reporter z-score, mean": "2.38 (active)"}
{"gene": "Htra3 (HtrA serine peptidase 3)", "siRNA no.": 5, "TNF reporter z-score, mean": -1.9}
{"gene": "Htra3 (HtrA serine peptidase 3)", "siRNA no.": 6, "TNF reporter z-score, mean": "-3.06 (active)"}
{"gene": "Psmb7 (proteasome (prosome, macropain) subunit, beta type 7)", "siRNA no.": 1, "TNF reporter z-score, mean": -0.659}
{"gene": "Psmb7 (proteasome (prosome, macropain) subunit, beta type 7)", "siRNA no.": 2, "TNF reporter z-score, mean": "-2.35 (active)"}
{"gene": "Psmb7 (proteasome (prosome, macropain) subunit, beta type 7)", "siRNA no.": 3, "TNF reporter z-score, mean": "-3.61 (active)"}
{"gene": "Hoxc8 (homeobox C8)", "siRNA no.": 1, "TNF reporter z-score, mean": "2.25 (active)"}
{"gene": "Hoxc8 (homeobox C8)", "siRNA no.": 2, "TNF reporter z-score, mean": "-3.76 (active)"}
{"gene": "Hoxc8 (homeobox C8)", "siRNA no.": 3, "TNF reporter z-score, mean": "-3.83 (active)"}
{"gene": "Hoxc8 (homeobox C8)", "siRNA no.": 4, "TNF reporter z-score, mean": "5.22 (active)"}
{"gene": "Hoxc8 (homeobox C8)", "siRNA no.": 5, "TNF reporter z-score, mean": "2.94 (active)"}
{"gene": "Hoxc8 (homeobox C8)", "siRNA no.": 6, "TNF reporter z-score, mean": 1.92}
{"gene": "Sfpq", "siRNA no.": 1, "TNF reporter z-score, mean": "5.37 (active)"}
{"gene": "Sfpq", "siRNA no.": 2, "TNF reporter z-score, mean": "-2.78 (active)"}
{"gene": "Sfpq", "siRNA no.": 3, "TNF reporter z-score, mean": "-4.37 (active)"}
{"gene": "Sfpq", "siRNA no.": 4, "TNF reporter z-score, mean": 0.484}
{"gene": "Sfpq", "siRNA no.": 5, "TNF reporter z-score, mean": -1}
{"gene": "Sfpq", "siRNA no.": 6, "TNF reporter z-score, mean": -1.94}
{"gene": "Pole3 (polymerase (DNA directed), epsilon 3 (p17 subunit))", "siRNA no.": 1, "TNF reporter z-score, mean": "-2.55 (active)"}
{"gene": "Pole3 (polymerase (DNA directed), epsilon 3 (p17 subunit))", "siRNA no.": 2, "TNF reporter z-score, mean": "-3.79 (active)"}
{"gene": "Pole3 (polymerase (DNA directed), epsilon 3 (p17 subunit))", "siRNA no.": 3, "TNF reporter z-score, mean": "-4.6 (active)"}
{"gene": "Pole3 (polymerase (DNA directed), epsilon 3 (p17 subunit))", "siRNA no.": 4, "TNF reporter z-score, mean": 0.491}
{"gene": "Pole3 (polymerase (DNA directed), epsilon 3 (p17 subunit))", "siRNA no.": 5, "TNF reporter z-score, mean": -0.934}
{"gene": "Pole3 (polymerase (DNA directed), epsilon 3 (p17 subunit))", "siRNA no.": 6, "TNF reporter z-score, mean": -1.85}

Sorted by “TNF reporter z-score, mean” (high to low): 7 of the entries above
{"gene": "Htra3 (HtrA serine peptidase 3)", "siRNA no.": 4, "TNF reporter z-score, mean": "2.38 (active)"}
{"gene": "Hoxc8 (homeobox C8)", "siRNA no.": 1, "TNF reporter z-score, mean": "2.25 (active)"}
{"gene": "Psmb7 (proteasome (prosome, macropain) subunit, beta type 7)", "siRNA no.": 1, "TNF reporter z-score, mean": -0.659}
{"gene": "Htra3 (HtrA serine peptidase 3)", "siRNA no.": 5, "TNF reporter z-score, mean": -1.9}
{"gene": "Psmb7 (proteasome (prosome, macropain) subunit, beta type 7)", "siRNA no.": 2, "TNF reporter z-score, mean": "-2.35 (active)"}
{"gene": "Htra3 (HtrA serine peptidase 3)", "siRNA no.": 6, "TNF reporter z-score, mean": "-3.06 (active)"}
{"gene": "Psmb7 (proteasome (prosome, macropain) subunit, beta type 7)", "siRNA no.": 3, "TNF reporter z-score, mean": "-3.61 (active)"}

Continued:
{"gene": "Abcb10 (ATP-binding cassette, sub-family B member 10)", "siRNA no.": 1, "TNF reporter z-score, mean": "-2.9 (active)"}
{"gene": "Abcb10 (ATP-binding cassette, sub-family B member 10)", "siRNA no.": 2, "TNF reporter z-score, mean": "-5.06 (active)"}
{"gene": "Abcb10 (ATP-binding cassette, sub-family B member 10)", "siRNA no.": 3, "TNF reporter z-score, mean": "-5.42 (active)"}
{"gene": "Abcb10 (ATP-binding cassette, sub-family B member 10)", "siRNA no.": 4, "TNF reporter z-score, mean": 1.78}
{"gene": "Abcb10 (ATP-binding cassette, sub-family B member 10)", "siRNA no.": 5, "TNF reporter z-score, mean": -0.36}
{"gene": "Abcb10 (ATP-binding cassette, sub-family B member 10)", "siRNA no.": 6, "TNF reporter z-score, mean": "-2.86 (active)"}
{"gene": "Runx2 (runt related transcription factor 2)", "siRNA no.": 1, "TNF reporter z-score, mean": "-3.27 (active)"}
{"gene": "Runx2 (runt related transcription factor 2)", "siRNA no.": 2, "TNF reporter z-score, mean": "-4.09 (active)"}
{"gene": "Runx2 (runt related transcription factor 2)", "siRNA no.": 3, "TNF reporter z-score, mean": "-4.91 (active)"}
{"gene": "Runx2 (runt related transcription factor 2)", "siRNA no.": 4, "TNF reporter z-score, mean": "2.88 (active)"}
{"gene": "Runx2 (runt related transcription factor 2)", "siRNA no.": 5, "TNF reporter z-score, mean": "2.95 (active)"}
{"gene": "Runx2 (runt related transcription factor 2)", "siRNA no.": 6, "TNF reporter z-score, mean": "2.48 (active)"}
{"gene": "Hc (hemolytic complement)", "siRNA no.": 1, "TNF reporter z-score, mean": 1.16}
{"gene": "Hc (hemolytic complement)", "siRNA no.": 2, "TNF reporter z-score, mean": "-2.64 (active)"}
{"gene": "Hc (hemolytic complement)", "siRNA no.": 3, "TNF reporter z-score, mean": "-3.55 (active)"}
{"gene": "Hc (hemolytic complement)", "siRNA no.": 4, "TNF reporter z-score, mean": 1.66}
{"gene": "Hc (hemolytic complement)", "siRNA no.": 5, "TNF reporter z-score, mean": 0.618}
{"gene": "Hc (hemolytic complement)", "siRNA no.": 6, "TNF reporter z-score, mean": 0.357}
